Results published in PubChem BioAssay AID330 (DTP/NCI, 2004).
The list shows only some results of the screen, not a fair sample: it is rich in T/C values a quarter to a half above the control, in often repeated tests (any T/C) and in doses without a T/C. Other doses and runs of a compound stand elsewhere. T/C is the treated group as % of the vehicle group. Some doses have a count of surviving animals in place of a T/C: the source files T/C as zero there, which appears to mark a toxic dose or a test without result, not a measured value. Some doses without a T/C left all or most animals alive at the check, yet need not have been tolerated: the source hardly ever lists a survival T/C far under the control, and the zero likely stands for such cases as well. Survivors were counted at the toxicity check, usually on the fifth day, unless a day is given; later deaths do not show. Schedules are NCI's codes, taken here to give the interval after Q, in days (D) or hours (H), and the number of doses after X. Some entries hold several experiments; the values are given in rising order. For survival time, the PubChem record calls one and a half times the control and up active, and a quarter to a half above the control has no call in these data; cut-offs in other NCI protocols can differ. Some T/C values are followed by the survivors on the day toxicity was checked, most often the fifth; where none is given, no animal had died by that day.

Test system: P388 leukemia ip, CD2F1 mice, survival T/C
Experiment: NCI In Vivo Anticancer Drug Screen. Data for tumor model P388 Leukemia (intraperitoneal) in CD2F1 (CDF1) mice
Settings: T/C endpoint: median survival time, higher T/C = longer survival
[1] = dose: 200.0 mg/kg/injection, schedule: Q01DX009 (ip), vehicle: water
[2] = dose: 200.0 mg/kg/injection, schedule: Q01DX009 (ip), vehicle: saline with Tween-80
[3] = dose: 25.0 mg/kg/injection, schedule: Q01DX009 (ip), vehicle: saline with Tween-80
[4] = dose: 50.0 mg/kg/injection, schedule: Q01DX009 (ip), vehicle: saline with Tween-80
[5] = dose: 100.0 mg/kg/injection, schedule: Q01DX009 (ip), vehicle: saline with Tween-80
[6] = dose: 240.0 mg/kg/injection, schedule: Q01DX005 (ip), vehicle: saline with Tween-80
[7] = dose: 120.0 mg/kg/injection, schedule: Q01DX005 (ip), vehicle: saline with Tween-80

## CP(=O)(NN)c1ccccc1 (centres undefined)
dose: 100.0 mg/kg/injection, schedule: Q01DX009 (ip), vehicle: water
  survivor count: 6 of 6
[1]
  survivor count: 4 of 6

## O=C1c2ccccc2C(=O)c2c(NCCCNCCO)ccc(NCCCNCCO)c21
dose: 25.0 mg/kg/injection, schedule: Q01DX009 (ip), vehicle: other
  T/C: 132 % of control
dose: 25.0 mg/kg/injection, schedule: Q01DX009 (ip), vehicle: water
  T/C: 128 % of control [5 of 6 alive]
dose: 30.0 mg/kg/injection, schedule: Q01DX009 (ip), vehicle: water
  T/C: 127 % of control
dose: 50.0 mg/kg/injection, schedule: Q01DX009 (ip), vehicle: other
  T/C: 132 % of control
dose: 50.0 mg/kg/injection, schedule: Q01DX009 (ip), vehicle: water
  T/C: 133 % of control
dose: 60.0 mg/kg/injection, schedule: Q01DX005 (ip), vehicle: other
  T/C: 128 % of control [5 of 6 alive]
dose: 60.0 mg/kg/injection, schedule: Q01DX009 (ip), vehicle: water
  T/C: 133 % of control
dose: 120.0 mg/kg/injection, schedule: Q01DX005 (ip), vehicle: other
  survivor count: 0 of 6
dose: 120.0 mg/kg/injection, schedule: Q01DX009 (ip), vehicle: water
  survivor count: 0 of 6
dose: 200.0 mg/kg/injection, schedule: Q01DX009 (ip), vehicle: other
  survivor count: 1 of 6
[1]
  survivor count: 0 of 6
dose: 400.0 mg/kg/injection, schedule: Q01DX009 (ip), vehicle: other
  survivor count: 0 of 6

## [N-]=[N+]=NC(=O)c1ccccn1
[2]
  survivor count: 0 of 6

## ClCCCCN(CCN(CCCCCl)c1ccccc1)c1ccccc1
dose: 50.0 mg/kg/injection, schedule: Q04DX002 (ip), vehicle: saline
  survivor count: 4 of 6
dose: 100.0 mg/kg/injection, schedule: Q04DX002 (ip), vehicle: saline
  survivor count: 0 of 5
dose: 200.0 mg/kg/injection, schedule: Q04DX002 (ip), vehicle: saline
  survivor count: 0 of 5
dose: 400.0 mg/kg/injection, schedule: Q04DX002 (ip), vehicle: saline
  survivor count: 0 of 5

## ClCCN(CCCl)c1ccc(CCN2CCOCC2)cc1
dose: 100.0 mg/kg/injection, schedule: Q01DX009 (ip), vehicle: saline
  survivor count: 6 of 6
dose: 200.0 mg/kg/injection, schedule: Q01DX009 (ip), vehicle: saline
  survivor count: 0 of 6

## COC(=O)C(C#N)=C(Cl)Cl
dose: 6.25 mg/kg/injection, schedule: Q01DX005 (ip), vehicle: Klucel (hydroxypropylcellulose) (HPC)
  survivor count: 6 of 6
dose: 12.5 mg/kg/injection, schedule: Q01DX005 (ip), vehicle: Klucel (hydroxypropylcellulose) (HPC)
  survivor count: 0 of 6
dose: 25.0 mg/kg/injection, schedule: Q01DX005 (ip), vehicle: Klucel (hydroxypropylcellulose) (HPC)
  survivor count: 0 of 6
dose: 50.0 mg/kg/injection, schedule: Q01DX005 (ip), vehicle: Klucel (hydroxypropylcellulose) (HPC)
  survivor count: 0 of 6
dose: 100.0 mg/kg/injection, schedule: Q01DX005 (ip), vehicle: Klucel (hydroxypropylcellulose) (HPC)
  survivor count: 0 of 6
dose: 200.0 mg/kg/injection, schedule: Q01DX005 (ip), vehicle: Klucel (hydroxypropylcellulose) (HPC)
  survivor count: 0 of 6

## Cc1cc(C)n2nc3c4ccsc4ncc3c2n1
dose: 200.0 mg/kg/injection, schedule: Q04DX002 (ip), vehicle: saline with Tween-80
  survivor count: 0 of 6, 3 of 6, 5 of 6
dose: 400.0 mg/kg/injection, schedule: Q04DX002 (ip), vehicle: saline with Tween-80
  survivor count: 0 of 6

## COc1ccc2nc(C)cc(N/N=C/c3ccc(N(CCCl)CCCl)cc3)c2c1
dose: 6.25 mg/kg/injection, schedule: Q01DX009 (ip), vehicle: Klucel (hydroxypropylcellulose) (HPC)
  survivor count: 6 of 6
dose: 12.5 mg/kg/injection, schedule: Q01DX009 (ip), vehicle: Klucel (hydroxypropylcellulose) (HPC)
  survivor count: 6 of 6
dose: 50.0 mg/kg/injection, schedule: Q01DX009 (ip), vehicle: Klucel (hydroxypropylcellulose) (HPC)
  survivor count: 5 of 6
dose: 100.0 mg/kg/injection, schedule: Q01DX009 (ip), vehicle: Klucel (hydroxypropylcellulose) (HPC)
  survivor count: 0 of 6
dose: 200.0 mg/kg/injection, schedule: Q01DX009 (ip), vehicle: Klucel (hydroxypropylcellulose) (HPC)
  survivor count: 0 of 5

## CC1CN1P(=S)(N1CC1C)N1CC1C (centres undefined)
dose: 20.0 mg/kg/injection, schedule: Q01DX010 (ip), vehicle: saline
  T/C: 130 % of control

## C(=Nc1ccccc1)Nc1ccccc1.[Cu+2]
[3]
  survivor count: 1 of 6 and 2 of 6
[4]
  survivor count: 0 of 6
[5]
  survivor count: 0 of 6
[2]
  survivor count: 0 of 6

## [Cl][Pt+2][Cl].[NH-]CC1(C[NH-])CCC1
dose: 0.19 mg/kg/injection, schedule: Q01DX009 (ip), vehicle: suspension in saline
  T/C: 129 % of control
dose: 0.75 mg/kg/injection, schedule: Q01DX005 (ip), vehicle: saline
  T/C: 148 % of control
dose: 0.75 mg/kg/injection, schedule: Q01DX005 (ip), vehicle: suspension in saline
  T/C: 147 % of control
dose: 0.75 mg/kg/injection, schedule: Q01DX009 (ip), vehicle: saline
  T/C: 133 % of control
dose: 12.0 mg/kg/injection, schedule: Q01DX005 (ip), vehicle: saline
  survivor count: 5 of 5
dose: 12.0 mg/kg/injection, schedule: Q01DX009 (ip), vehicle: saline
  survivor count: 5 of 5

## CC(C)(C)c1cc(C(c2cc3c(cc2O)OCO3)N2CCOCC2)cc(C(C)(C)C)c1O (centres undefined)
[6]
  T/C: 127 and 134 % of control
dose: 480.0 mg/kg/injection, schedule: Q01DX005 (ip), vehicle: saline with Tween-80
  survivor count: 1 of 6

## CCO/C=C1/N=C(c2ccc(OC)c(OC)c2)OC1=O
[7]
  survivor count: 6 of 6
[6]
  survivor count: 1 of 6

## CCOC(=O)c1ccc(NCc2ccc(CNc3ccc(C(=O)OCC)cc3)cc2)cc1
[3]
  survivor count: 6 of 6
[4]
  survivor count: 6 of 6
[5]
  survivor count: 6 of 6
[2]
  survivor count: 6 of 6

## C[N+]1(C)CCC(Cc2ccccc2)CC1
dose: 25.0 mg/kg/injection, schedule: Q01DX005 (ip), vehicle: saline
  survivor count: 0 of 6
dose: 50.0 mg/kg/injection, schedule: Q01DX005 (ip), vehicle: saline
  survivor count: 0 of 6
dose: 100.0 mg/kg/injection, schedule: Q01DX005 (ip), vehicle: saline
  survivor count: 0 of 6
dose: 200.0 mg/kg/injection, schedule: Q01DX005 (ip), vehicle: saline
  survivor count: 0 of 6

## CCOc1c(N=Nc2ccccc2OC)c(C)nn1C(=S)SC
dose: 60.0 mg/kg/injection, schedule: Q01DX005 (ip), vehicle: Klucel + Tween-80
  survivor count: 1 of 6
dose: 120.0 mg/kg/injection, schedule: Q01DX005 (ip), vehicle: Klucel + Tween-80
  survivor count: 0 of 6
dose: 240.0 mg/kg/injection, schedule: Q01DX005 (ip), vehicle: Klucel + Tween-80
  survivor count: 0 of 6

## CN1c2cccc[c]2[Sn]([CH3])([CH3])[c]2ccccc21
[7]
  T/C: 130 % of control
[6]
  T/C: 127 and 135 % of control

## Cc1ccc(C(=O)[Se][Se]C(=O)c2ccc(C)cc2)cc1
[4]
  survivor count: 0 of 6
[5]
  survivor count: 0 of 6
